The whole screen tested about 52,000 sequences, of which about 210 (0.4%) were called active.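 How the source made its calls: active means gene whose silencing raises cell survival under the drug, median off-target-corrected z-score across its silencing RNAs 2 or more; inactive means the rest.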 The list shows a part of the results.

A short description of this test: Resistance to Poly (ADP-Ribose) Polymerase inhibitor: Gene Identification via Genome-wide siRNA Screen. Particulars: mouse BRCA2 R2336H ES cells, olaparib, CellTiter-Glo viability; active compounds read high. In outline:
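Mouse BRCA2 R2336H ES cells were reverse-transfected with siRNA (20 nM final), treated at 48 h with 500 nM olaparib, and read by CellTiter-Glo after 72 h. Scores: MAD-based z per siRNA, median per gene, seed off-target correction.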
With GCAAACUGUGGACAUUUAATT against Gabra5, the z-score is inactive: -0.0937.
Under GGUAUUUGAAGGGACAUCUTT against Atp6v1b2 stands inactive: 0.311; under “GGACACAAAGAAGAAGAGGTT against A530046H20Rik”, inactive: 1.55.
Then GGAAGUAGUCUUCUACAGUTT against Cyp4f15, with inactive: -0.288; and “GCUCCCUUCCCAAUAAAGCTT against Gadd45gip1”, with inactive: 1.39.
Turning to “GGAAAAGGUUACCUUGCCCTT against 9030425E11Rik”, the z-score is inactive: 0.555.
Under GCAAAUGGAUCACAGGCCUTT against BC018399 stands inactive: -2.17.
Then GCACUUACUCAAAUGGAACTT against Cyp2j6, with inactive: 0.167; and GGAACAUAUACUGGGCAACTT against Tcl1b1, with inactive: 0.794.
Then GCUUCCCUGGACCCAAUGUTT against Artn, with inactive: 2.83; and GACAAAACAAUUUCCUAUGTT against Olfr805, with inactive: 0.0617.
As to GGUUUUCAUUGCCCAGUCCTT against Drbp1, the z-score was inactive: 1.72.
Under “GGCUGCUUUCUGAUGGUCATT against A530081L18Rik” stands inactive: 0.122; under CCAGAUGCUAUGCUAGGGATT against BC049354, inactive: -1.16; under CCACGCCAUCUUACUGACUTT against Adamts16, inactive: 1.66.
Under GGACUUGUCCGCUCAUUGGTT against Usp54 stands inactive: 0.263; under GGCGACUCUGUCACAAUUUTT against C1rl, inactive: -0.816.
Regarding GCAUUAUGCAAAUGAGGAUTT against Phtf2, the z-score is inactive: 0.0171.
For CCUGUCAUCUAUGCUAUGATT against Npnt, the z-score is inactive: -1.17.
Then CGCAGACAACAAAGUAGAATT against Sars1, with inactive: 0.596.
Take GGCAGCAUUGAGUGUGUGATT against Asb13: the z-score is inactive: -2.9.
Under CCACUAAUUACAGUAACAUTT against Akr1c20 stands inactive: 0.237; under GCAUUUUGUGGAAAAGGCUTT against Olfr582, inactive: 0.742; under CGUGGAGAACUGGUAUCAGTT against Psg17, inactive: -1.65.
Under “GGAGAAGCCUGGAAGGAAATT against 1190017O12Rik” stands inactive: 0.696.
Under “CCAGGACCUAGAGUACCUUTT against 1700012B18Rik” stands inactive: -1.19.
As for CGCAUUGCCAAACAACUCUTT against Gad2, the z-score was inactive: 0.13.
For “GCAAUGGUUGGUUCAAUAATT against 5730427C23Rik”, the z-score was inactive: -1.47.
As to GGAGAACGAUUUCGAUCGCTT against Cope, the z-score was inactive: -0.00108.
For “GCUUUCACUAAUCAGUACATT against 2900045N06Rik”, the z-score was inactive: -1.32.
GGUUUCAAACUCUUGUAAUTT against Pgrmc1: the z-score was inactive: 0.968.
As for GGAUUGAUUUUUGGAGGGCTT against Fxyd4, the z-score was inactive: 0.579.
With GGAACAUCUUUCUUCUCCATT against Abhd4, the z-score was inactive: -1.07.
As for GGGCAUGACAUUCGAGACATT against Accn2, the z-score is inactive: -0.621.
Take GCUCCCACCCUUAAAUAAUTT against Ltb4dh: the z-score is inactive: -0.376.
Under CCGGACAAGUCGUUUUUUATT against Cdca1 stands inactive: -2.51; under GCUACAGGUUUUAUCUCUUTT against Mylc2pl, inactive: -0.935; under “GCUGUCUGUGGUUAUUGGGTT against 5730411O18Rik”, inactive: -0.507.
Under GGAUUGUCAGCCAAGAAACTT against Ube1l stands inactive: 0.652; under CCCUAAAACUUCUAUCGAGTT against Itgb4bp, inactive: -1.93; under GGUUUGAGGCGAGCUAACUTT against Rph3a, inactive: -2.3.
On to GCAAAUGUAUUAUGUCCUUTT against MGC54654, for which the z-score was inactive: 1.72.
Take “GGCACAGGUUAGAUGAGAGTT against A830091I15Rik”: the z-score is inactive: -0.793.
Under GGAUUAUCCUGGCUUGUUGTT against Rdh12 stands inactive: -0.246; under GUGAUAAAUGCUGAUAGUGTT against Olfr1280, inactive: 0.823; under GCAUAUGAUUAUUCUGGGATT against Cox7a2l, inactive: 0.896.
Then “GGUUUAUCUCAAGUCUCAATT against 5730436H21Rik”, with inactive: -1.01; and CCACUUUCACCACAAAGUCTT against Klre1, with inactive: -0.131.
Under GGAAGCUGGCUGGAAAGAUTT against Saa2 stands inactive: -1.18; under “GCAUGUUAGGUGCUGUGCATT against A530082C11Rik”, inactive: -3.17; under GGGAAAAAGCUAGAAAAAGTT against Gp1ba, inactive: 1.33.
AUCUAUUCGAAUCAGGAAGTT against Epsti1: the z-score is inactive: -1.1.
On to GCACUUGGGUAAAAAACUCTT against Bcorl1, for which the z-score is inactive: 0.555.
Consider GGAGUCCUGAAGAAUAAAGTT against Tff3, for which the z-score is inactive: -0.456.
With GGGCCCGAUAGAUAUAAACTT against B4galt5, the z-score was inactive: 0.851.
Regarding GGAAAAGAAAGUCUGCCAATT against Egfr, the z-score was inactive: 0.645.
Under UCAACUGCUUAGAGCAUGUTT against ORF61 stands inactive: 1.53; under GCUCUAUGAACCAGCUUCATT against Plekha6, inactive: -0.647; under GGUCUCCAUAAGUGUCAGCTT against Cntfr, inactive: -0.605.
Take GGGUAAAAGUUGAGUAAAATT against Ppp1r14c: the z-score was inactive: -0.64.
Then “GCUGCCUAUGGCUUCUUCCTT against 1810008O21Rik”, with inactive: 1.01; and GGUCAUUCUUAAUUGUUCATT against Kpna6, with inactive: -1.32; and GGCAACAUGGUGAUCAUCGTT against Olfr323, with inactive: -2.57.
With GCCGUGCUAUGUAUUAUUCTT against Ptk9, the z-score is inactive: 0.38.
Under GGACUCUCCUAUGUUAUAGTT against Nphs2 stands inactive: 0.646; under “GGAAACUGCUGAAAGGUUATT against D530025C17Rik”, inactive: 0.764.
Take GGUCUUUAUUUACCUCUUUTT against Cyp2c39: the z-score is inactive: -1.29.
Under GCAACGAAGUGAAUUUGUUTT against Epha5 stands inactive: -0.292; under GGAGCUGUUCUCUGAAAUGTT against Rabl4, inactive: -0.0778; under GGAAGAAUUGAAUUGUAUGTT against Pom121, inactive: 0.00316.
Under CCUUAGGACAAGUAUUCUGTT against Cbx6 stands inactive: 1.14; under CCAGUAAACCUACAUGUUCTT against Htr3b, inactive: 0.197; under GGUGUCUGUCAUGACCAUGTT against Tie1, inactive: 2.02.
Under GGCAAUGAUGAGACCUAGUTT against Mybbp1a stands inactive: -0.393.
As for GCAACCUGAUAGUGUGGUCTT against Crisp1, the z-score was inactive: 1.1.
Under “GGAGGAAAUGCACUACAAGTT against F730014I05Rik” stands inactive: -0.771; under GCAUCUAUCGGAUUCUUAUTT against LOC234374, inactive: -1.66; under GCCUUCUGAGAUAGUAGAUTT against Zcchc17, inactive: -0.5.
Consider GGAGCUGGAACAGAUGGAATT against Atf5, for which the z-score is inactive: -0.463.
Under GCUUCGAAGGCAAAUGUGGTT against Vamp4 stands inactive: -0.51; under GGGUUCAAGAGAUGGGAAUTT against Efna5, inactive: -1.95; under GCAUCGGCUAGUUCAGCCATT against LOC330863, inactive: 0.303.
As to CCUCAAUCCUGGUCUAAAATT against Plcl2, the z-score was inactive: 0.223.
Then UGCCAUGGGACUCAUAGGCTT against Olfr160, with inactive: 1.19.
Under GGAUCACUACAAGUUGGCUTT against Gtpbp4 stands inactive: 0.067; under GCUGUCUUUUAUGCAAGCATT against Bteb1, inactive: -0.732; under CCUGUGAAUUCAUCGUUCATT against Dscr3, inactive: 1.21.
Then GGCUACAAAGAUGCAGACUTT against Pi4k2a, with inactive: -1.81; and “GGCACUCAAUGUCUUCUAUTT against A530083I02Rik”, with inactive: 0.478.
For the sequence GGGUCCUUUUUCACAUGGUTT against Asph, the z-score is inactive: 0.568.
Consider GGUGGACCUGAAACGUAGCTT against Inhbb, for which the z-score is inactive: 0.118.
Then GGGUUACUUUAGCUAUUUCTT against Rbm14, with inactive: -0.226; and GGACGGACCUUUGUGUCUCTT against Axl, with inactive: 1.15; and CGUUUGAAUAAUUCAGAGUTT against Armcx2, with inactive: -0.0626.
With GGAACAGUGAUCCAUUUUATT against Btf3, the z-score is inactive: -2.51.
Then GGUUCUAAAACUUAACAAGTT against Brf2, with inactive: -0.875; and GGCAUUAUCUACAUGCACATT against Olfr1287, with inactive: 0.061.
In the case of GGUUGAGUACACCAAGAAUTT against Dcx, the z-score was inactive: 0.0268.
As to GGAGCUUGCUCAGACUACUTT against Cct8, the z-score was inactive: -2.76.
For GGCUGAUGGAAUUGUCUCATT against Rps21, the z-score was inactive: -3.13.
Under GGACCUGACCAAUUGAGCUTT against Rusc1 stands inactive: -0.323.
Under GGUGCAAGCUUUGAGAGGATT against Hsf4 stands inactive: 0.388.
Then “GCACGACUACUUCUCAAAUTT against 2610031L17Rik”, with inactive: -2.9; and CGGCAGUAAUCCCGUUGACTT against D12Wsu95e, with inactive: -0.709.

For the origin of these results see PubChem BioAssay AID1347423 (Functional Genomics Laboratory (NCATS/FGL), 2020).
